Results are given in words; binding and its absence hold for the method and conditions named. In cells and extracts the contact can be indirect. Some entries that bind do so weakly or less than the wild type. Where a sequence is shown, tags or fusion partners need not be part of it.

Sequences of proteins named here, by UniProt entry; tags and fusion partners are left off. Residues count along the entry.
UniProt P19525, residues 1-265: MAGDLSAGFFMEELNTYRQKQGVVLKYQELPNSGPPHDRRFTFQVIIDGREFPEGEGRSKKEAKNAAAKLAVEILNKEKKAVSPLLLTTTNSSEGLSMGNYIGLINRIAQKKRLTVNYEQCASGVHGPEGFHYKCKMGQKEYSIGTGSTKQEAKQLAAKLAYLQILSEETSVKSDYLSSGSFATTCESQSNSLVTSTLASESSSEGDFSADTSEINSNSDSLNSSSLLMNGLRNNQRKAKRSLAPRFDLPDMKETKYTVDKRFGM

The results in this text go back to article PMC10573436.

Assay [1] deals with T1, full-length PACT (PKR activator) fused to a nanoluciferase moiety, O75569.
T1 chain: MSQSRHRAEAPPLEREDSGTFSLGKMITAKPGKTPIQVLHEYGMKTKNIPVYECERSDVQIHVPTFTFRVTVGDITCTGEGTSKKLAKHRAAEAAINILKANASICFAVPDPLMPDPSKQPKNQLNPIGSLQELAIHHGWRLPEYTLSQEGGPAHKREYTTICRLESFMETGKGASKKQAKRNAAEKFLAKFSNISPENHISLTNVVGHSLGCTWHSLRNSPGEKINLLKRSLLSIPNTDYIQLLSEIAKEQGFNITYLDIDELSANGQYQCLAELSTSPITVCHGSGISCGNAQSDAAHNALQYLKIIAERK
The assay is described as follows: split reporter. Conditions: remark: other sources report otherwise.

In assay [2] the target is N-terminus of dsRNA-dependent protein kinase PKR, aa 1-265 (NtPKR), fused to a nanoluciferase moiety (UniProt P19525). The assay is described as follows: split reporter.

B1: retinoic acid-inducible gene I (RIG-I) fused to nanoluciferase moiety N2, O95786 1-925 (protein)
chain: MTTEQRRSLQAFQDYIRKTLDPTYILSYMAPWFREEEVQYIQAEKNNKGPMEAATLFLKFLLELQEEGWFRGFLDALDHAGYSGLYEAIESWDFKKIEKLEEYRLLLKRLQPEFKTRIIPTDIISDLSECLINQECEEILQICSTKGMMAGAEKLVECLLRSDKENWPKTLKLALEKERNKFSELWIVEKGIKDVETEDLEDKMETSDIQIFYQEDPECQNLSENSCPPSEVSDTNLYSPFKPRNYQLELALPAMKGKNTIICAPTGCGKTFVSLLICEHHLKKFPQGQKGKVVFFANQIPVYEQQKSVFSKYFERHGYRVTGISGATAENVPVEQIVENNDIIILTPQILVNNLKKGTIPSLSIFTLMIFDECHNTSKQHPYNMIMFNYLDQKLGGSSGPLPQVIGLTASVGVGDAKNTDEALDYICKLCASLDASVIATVKHNLEELEQVVYKPQKFFRKVESRISDKFKYIIAQLMRDTESLAKRICKDLENLSQIQNREFGTQKYEQWIVTVQKACMVFQMPDKDEESRICKALFLYTSHLRKYNDALIISEHARMKDALDYLKDFFSNVRAAGFDEIEQDLTQRFEEKLQELESVSRDPSNENPKLEDLCFILQEEYHLNPETITILFVKTRALVDALKNWIEGNPKLSFLKPGILTGRGKTNQNTGMTLPAQKCILDAFKASGDHNILIATSVADEGIDIAQCNLVILYEYVGNVIKMIQTRGRGRARGSKCFLLTSNAGVIEKEQINMYKEKMMNDSILRLQTWDEAVFREKILHIQTHEKFIRDSQEKPKPVPDKENKKLLCRKCKALACYTADVRVIEECHYTVLGDAFKECFVSRPHPKPKQFSSFEKRAKIFCARQNCSHDWGIHVKYKTFEIPVIKIESFVVEDIATGVQTLYSKWKDFHFEKIPFDPAEMSK
Take B1: the binding entry in assay [1] is listed as “binds”.

B2: retinoic acid-inducible gene I (RIG-I) fused to nanoluciferase moiety N2 (protein, UniProt O95786 1-925)
chain: MTTEQRRSLQAFQDYIRKTLDPTYILSYMAPWFREEEVQYIQAEKNNKGPMEAATLFLKFLLELQEEGWFRGFLDALDHAGYSGLYEAIESWDFKKIEKLEEYRLLLKRLQPEFKTRIIPTDIISDLSECLINQECEEILQICSTKGMMAGAEKLVECLLRSDKENWPKTLKLALEKERNKFSELWIVEKGIKDVETEDLEDKMETSDIQIFYQEDPECQNLSENSCPPSEVSDTNLYSPFKPRNYQLELALPAMKGKNTIICAPTGCGKTFVSLLICEHHLKKFPQGQKGKVVFFANQIPVYEQQKSVFSKYFERHGYRVTGISGATAENVPVEQIVENNDIIILTPQILVNNLKKGTIPSLSIFTLMIFDECHNTSKQHPYNMIMFNYLDQKLGGSSGPLPQVIGLTASVGVGDAKNTDEALDYICKLCASLDASVIATVKHNLEELEQVVYKPQKFFRKVESRISDKFKYIIAQLMRDTESLAKRICKDLENLSQIQNREFGTQKYEQWIVTVQKACMVFQMPDKDEESRICKALFLYTSHLRKYNDALIISEHARMKDALDYLKDFFSNVRAAGFDEIEQDLTQRFEEKLQELESVSRDPSNENPKLEDLCFILQEEYHLNPETITILFVKTRALVDALKNWIEGNPKLSFLKPGILTGRGKTNQNTGMTLPAQKCILDAFKASGDHNILIATSVADEGIDIAQCNLVILYEYVGNVIKMIQTRGRGRARGSKCFLLTSNAGVIEKEQINMYKEKMMNDSILRLQTWDEAVFREKILHIQTHEKFIRDSQEKPKPVPDKENKKLLCRKCKALACYTADVRVIEECHYTVLGDAFKECFVSRPHPKPKQFSSFEKRAKIFCARQNCSHDWGIHVKYKTFEIPVIKIESFVVEDIATGVQTLYSKWKDFHFEKIPFDPAEMSK
Regarding B2, in assay [2], the binding result is “binds”.
